The values that follow come from paper PMC3441895.

By UniProt entry, the sequences of proteins in these tests, tags left out.
UniProt P38249: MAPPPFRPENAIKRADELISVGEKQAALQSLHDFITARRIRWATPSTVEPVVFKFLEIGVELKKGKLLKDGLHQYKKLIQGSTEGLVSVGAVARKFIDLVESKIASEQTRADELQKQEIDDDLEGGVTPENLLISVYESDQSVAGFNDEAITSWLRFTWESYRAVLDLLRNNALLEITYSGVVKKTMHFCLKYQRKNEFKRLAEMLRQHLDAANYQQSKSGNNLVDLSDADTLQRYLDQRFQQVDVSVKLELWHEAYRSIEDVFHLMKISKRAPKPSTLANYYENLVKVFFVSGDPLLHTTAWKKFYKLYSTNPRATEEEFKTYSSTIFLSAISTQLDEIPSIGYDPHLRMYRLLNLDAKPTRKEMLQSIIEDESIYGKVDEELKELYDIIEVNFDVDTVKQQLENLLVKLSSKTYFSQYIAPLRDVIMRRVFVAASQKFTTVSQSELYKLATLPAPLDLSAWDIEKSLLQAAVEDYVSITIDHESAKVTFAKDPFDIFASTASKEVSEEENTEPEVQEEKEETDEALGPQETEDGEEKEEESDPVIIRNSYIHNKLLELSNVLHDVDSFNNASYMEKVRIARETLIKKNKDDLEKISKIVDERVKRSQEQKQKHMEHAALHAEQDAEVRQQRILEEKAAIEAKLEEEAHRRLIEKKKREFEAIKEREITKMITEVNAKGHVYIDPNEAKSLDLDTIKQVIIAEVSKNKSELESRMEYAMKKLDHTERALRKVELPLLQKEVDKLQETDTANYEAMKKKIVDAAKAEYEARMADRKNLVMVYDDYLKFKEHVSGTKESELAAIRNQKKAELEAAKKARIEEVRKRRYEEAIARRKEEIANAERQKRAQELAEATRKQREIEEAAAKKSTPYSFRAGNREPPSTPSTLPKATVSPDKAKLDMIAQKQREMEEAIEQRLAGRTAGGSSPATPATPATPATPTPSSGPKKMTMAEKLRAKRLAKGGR

The target in the test is T1, TAP-tagged Yhr087wp (S. cerevisiae) (UniProt P38804).
T1 sequence: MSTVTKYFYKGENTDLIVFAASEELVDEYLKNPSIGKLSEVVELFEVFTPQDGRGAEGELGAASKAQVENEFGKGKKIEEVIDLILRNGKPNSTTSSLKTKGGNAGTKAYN
Kind of test: co-IP; lysate of cells transferred for 90 min to YP20 (50 mM Tris-HCl pH 8.0, 5 mM EDTA, 250 mM NaCl, 0.01% Triton X-100); Yhr087wp-TAP precipitated on Dynabeads IgG Pan Mouse, 2 h at 4°C; HA-tagged proteins detected by Western with anti-HA 3F10.

Results are given in words; binding and its absence hold for the method and conditions named. In cells and extracts the contact can be indirect. Some results given as binding are weak or reduced against the parent protein; the word gives no strength. Sequences can lack the tags named with a protein.

On to “HA-tagged Tif32p (from UniProt P38249 1-964)”, for which the binding entry was “binds”.

B1: HA-tagged Cdc33p (protein, UniProt P07260 1-213)
chain: MSVEEVSKKFEENVSVDDTTATPKTVLSDSAHFDVKHPLNTKWTLWYTKPAVDKSESWSDLLRPVTSFQTVEEFWAIIQNIPEPHELPLKSDYHVFRNDVRPEWEDEANAKGGKWSFQLRGKGADIDELWLRTLLAVIGETIDEDDSQINGVVLSIRKGGNKFALWTKSEDKEPLLRIGGKFKQVLKLTDDGHLEFFPHSSANGRHPQPSITL
In the case of B1, the binding entry is “binds”.

B2: HA-tagged Sti1p (protein, UniProt P15705 1-589)
chain: MSLTADEYKQQGNAAFTAKDYDKAIELFTKAIEVSETPNHVLYSNRSACYTSLKKFSDALNDANECVKINPSWSKGYNRLGAAHLGLGDLDEAESNYKKALELDASNKAAKEGLDQVHRTQQARQAQPDLGLTQLFADPNLIENLKKNPKTSEMMKDPQLVAKLIGYKQNPQAIGQDLFTDPRLMTIMATLMGVDLNMDDINQSNSMPKEPETSKSTEQKKDAEPQSDSTTSKENSSKAPQKEESKESEPMEVDEDDSKIEADKEKAEGNKFYKARQFDEAIEHYNKAWELHKDITYLNNRAAAEYEKGEYETAISTLNDAVEQGREMRADYKVISKSFARIGNAYHKLGDLKKTIEYYQKSLTEHRTADILTKLRNAEKELKKAEAEAYVNPEKAEEARLEGKEYFTKSDWPNAVKAYTEMIKRAPEDARGYSNRAAALAKLMSFPEAIADCNKAIEKDPNFVRAYIRKATAQIAVKEYASALETLDAARTKDAEVNNGSSAREIDQLYYKASQQRFQPGTSNETPEETYQRAMKDPEVAAIMQDPVMQSILQQAQQNPAALQEHMKNPEVFKKIQTLIAAGIIRTGR
On to B2, for which the binding result is “binds”.

B3: HA-tagged Tif4631p (protein, UniProt P39935 1-952)
chain: MTDETAHPTQSASKQESAALKQTGDDQQESQQQRGYTNYNNGSNYTQKKPYNSNRPHQQRGGKFGPNRYNNRGNYNGGGSFRGGHMGANSSNVPWTGYYNNYPVYYQPQQMAAAGSAPANPIPVEEKSPVPTKIEITTKSGEHLDLKEQHKAKLQSQERSTVSPQPESKLKETSDSTSTSTPTPTPSTNDSKASSEENISEAEKTRRNFIEQVKLRKAALEKKRKEQLEGSSGNNNIPMKTTPENVEEKGSDKPEVTEKTKPAEEKSAEPEVKQETPAEEGEQGEKGQIKEESTPKVLTFAERLKLKKQQKEREEKTEGKENKEVPVQEETKSAIESAPVPPSEQVKEETEVAETEQSNIDESATTPAIPTKSDEAEAEVEAEAGDAGTKIGLEAEIETTTDETDDGTNTVSHILNVLKDATPIEDVFSFNYPEGIEGPDIKYKKEHVKYTYGPTFLLQFKDKLNVKADAEWVQSTASKIVIPPGMGRGNRSRDSGRFGNNSSRGHDFRNTSVRNMDDRANSRTSSKRRSKRMNDDRRSNRSYTSRRDRERGSYRNEEKREDDKPKEEVAPLVPSANRWVPKFKSKKTEKKLAPDGKTELLDKDEVERKMKSLLNKLTLEMFDAISSEILAIANISVWETNGETLKAVIEQIFLKACDEPHWSSMYAQLCGKVVKELNPDITDETNEGKTGPKLVLHYLVARCHAEFDKGWTDKLPTNEDGTPLEPEMMSEEYYAAASAKRRGLGLVRFIGFLYRLNLLTGKMMFECFRRLMKDLTDSPSEETLESVVELLNTVGEQFETDSFRTGQATLEGSQLLDSLFGILDNIIQTAKISSRIKFKLIDIKELRHDKNWNSDKKDNGPKTIQQIHEEEERQRQLKNNSRSNSRRTNNSSNRHSFRRDAPPASKDSFITTRTYSQRNSQRAPPPKEEPAAPTSTATNMFSALMGESDDEE
Turning to B3, the binding result is on record as “binds”.
